Source: the supplement of paper PMC5949888
Most values lie at the floor of the assay. Slopes are relative: functional sequences can read slightly below zero.

These substances were tested on Saccharomyces cerevisiae PS128 hsf1 delta, HSF1(1-493) fusion (assay: growth estimate (transactivation domain function in HSF1 fusion, heat-shock survival) (a.u. (slope of normalised read count over time)); higher = stronger growth at 37°C, i.e. more transactivation activity). Conditions: library: random library.

Q: For RSSRERAPE, which growth estimate is on record?
A: < -0.25

Q: How did the growth estimate turn out when RSSTFRLLDTLNWRGKGPLF was run?
A: < -0.25

Q: With RSSTPREGVPGIRNEPMPTV as the substance, how does the growth estimate read?
A: < -0.25

Q: For RSSVK, which growth estimate is on record?
A: -0.232

Q: With RSTAKSPS as the substance, how does the growth estimate read?
A: < -0.25

Q: Which growth estimate does the source give for RSTKIPKVVHGGGATD here?
A: < -0.25

Q: Which growth estimate does the source give for RSTPSSVDRYDHARFCARGA here?
A: < -0.25

Q: With RSTQAGSRHRWRCLVCQLKS as the substance, how does the growth estimate read?
A: < -0.25

Q: Which growth estimate does the source give for RSTSPPPNELRPLLARTKRP here?
A: < -0.25

Q: Which growth estimate does the source give for RSTTSRQLGILSGITVAG here?
A: < -0.25

Q: With RSTWRAEKESTMQE as the substance, how does the growth estimate read?
A: < -0.25

Q: For RSTYPREF, which growth estimate is on record?
A: < -0.25

Q: Which growth estimate does the source give for RSVALPGGDQKRAAEASTTH here?
A: < -0.25

Q: Which growth estimate does the source give for RSVATMAMSSPTCMSGKVHP here?
A: < -0.25

Q: How did the growth estimate turn out when RSVCGQGTTTSSGATGDIKS was run?
A: < -0.25

Q: For RSVCIGYTGMFVCVRHTRLL, which growth estimate is on record?
A: < -0.25

Q: With RSVIGSGLCLLCWTVRRGRR as the substance, how does the growth estimate read?
A: < -0.25

Q: With RSVKGRVVIPGDVWLYDDVS as the substance, how does the growth estimate read?
A: < -0.25

Q: With RSVNKCAVPSRVVVRVRG as the substance, how does the growth estimate read?
A: < -0.25

Q: With RSVRGHVQPVELWGVLE as the substance, how does the growth estimate read?
A: < -0.25

Q: For RSVRVKAIESAPVPP, which growth estimate is on record?
A: < -0.25

Q: With RSVVGGKNGSFEGTRVAREG as the substance, how does the growth estimate read?
A: < -0.25

Q: RSW was tested. Which growth estimate did it give?
A: < -0.25

Q: How did the growth estimate turn out when RSWGLVP was run?
A: < -0.25

Q: RSWQTNNRTA was tested. Which growth estimate did it give?
A: 0.0138

Q: RSYVFKGWRSV was tested. Which growth estimate did it give?
A: < -0.25

Q: With RSYVLRIGVSVA as the substance, how does the growth estimate read?
A: < -0.25

Q: With RSYVSELILPAAKRQLQGTT as the substance, how does the growth estimate read?
A: < -0.25

Q: How did the growth estimate turn out when RTAGDAGTSILRAIAKASLA was run?
A: < -0.25

Q: For RTALDGFRRTRAPANIRSAK, which growth estimate is on record?
A: < -0.25

Q: With RTAPITLQMHTL as the substance, how does the growth estimate read?
A: < -0.25

Q: For RTAVRVGGAALRLFFNLTQG, which growth estimate is on record?
A: < -0.25

Q: Which growth estimate does the source give for RTCA here?
A: < -0.25

Q: Which growth estimate does the source give for RTCGSVQG here?
A: < -0.25

Q: With RTCI as the substance, how does the growth estimate read?
A: < -0.25

Q: RTCWMYARLTTDGLRSPTVA was tested. Which growth estimate did it give?
A: < -0.25

Q: Which growth estimate does the source give for RTECWTGASLQVANCHIRQP here?
A: < -0.25

Q: How did the growth estimate turn out when RTEGLFRHADARLNGCHCTA was run?
A: < -0.25

Q: Which growth estimate does the source give for RTEKWDRRTR here?
A: < -0.25

Q: With RTFKSWSAFYSRGGLRHIPA as the substance, how does the growth estimate read?
A: < -0.25

Q: With RTFLWRITQPPIVQGLG as the substance, how does the growth estimate read?
A: < -0.25

Q: For RTGCDCFCEGPGVCHMRAYV, which growth estimate is on record?
A: < -0.25

Q: For RTGDILIDSVPRTNLILTSG, which growth estimate is on record?
A: < -0.25

Q: RTGERTAQCAKV was tested. Which growth estimate did it give?
A: < -0.25

Q: For RTGFFPIFRHVSLGSLSIGL, which growth estimate is on record?
A: < -0.25

Q: Which growth estimate does the source give for RTGG here?
A: < -0.25

Q: With RTGGYAFVHHIALWSNSIPP as the substance, how does the growth estimate read?
A: < -0.25

Q: Which growth estimate does the source give for RTGLLEECRSCPMPHLGVSQ here?
A: < -0.25

Q: For RTGLVDVVEV, which growth estimate is on record?
A: < -0.25

Q: RTGRGIILDCGSQMGSYHIC was tested. Which growth estimate did it give?
A: < -0.25

Q: With RTGT as the substance, how does the growth estimate read?
A: < -0.25

Q: For RTGVHVWLNYASFTVRRSLD, which growth estimate is on record?
A: < -0.25

Q: How did the growth estimate turn out when RTGVMCH was run?
A: < -0.25

Q: Which growth estimate does the source give for RTGVRDLSRAASASPNGGIS here?
A: < -0.25

Q: Which growth estimate does the source give for RTHEEHD here?
A: < -0.25

Q: Which growth estimate does the source give for RTHLMSGYQIRYCPHNEVAP here?
A: -0.228

Q: With RTIGTHIKEDCRIARIKVRP as the substance, how does the growth estimate read?
A: < -0.25

Q: How did the growth estimate turn out when RTIRCGSFHSKELRCLYKHR was run?
A: < -0.25

Q: RTISMCPDDVQIFRNARVN was tested. Which growth estimate did it give?
A: < -0.25

Q: For RTKWLQDVSAIVNVRGFVSG, which growth estimate is on record?
A: < -0.25

Q: For RTLASGLAPKGSGTRTLMWR, which growth estimate is on record?
A: < -0.25

Q: How did the growth estimate turn out when RTLECGAFHEPIQGQTRKHL was run?
A: < -0.25

Q: How did the growth estimate turn out when RTLGRVRSHGSRMRCRQGMV was run?
A: < -0.25

Q: RTLIYPRLVANQRWSKFLRP was tested. Which growth estimate did it give?
A: < -0.25

Q: With RTLPLRFPGAQPLYQ as the substance, how does the growth estimate read?
A: < -0.25

Q: For RTLQVLQTL, which growth estimate is on record?
A: < -0.25

Q: For RTLR, which growth estimate is on record?
A: < -0.25

Q: How did the growth estimate turn out when RTPGDGSCQSKQNPPEFGAH was run?
A: < -0.25

Q: How did the growth estimate turn out when RTPRLTFARKVRCKSVSPAL was run?
A: < -0.25

Q: How did the growth estimate turn out when RTPRSQSRVGSVEEAR was run?
A: < -0.25

Q: Which growth estimate does the source give for RTQMQQTVKSLNHM here?
A: < -0.25

Q: Which growth estimate does the source give for RTQQVPDFGNSAARIHGVPA here?
A: < -0.25

Q: With RTQRRGWCLRGLIQINSCTL as the substance, how does the growth estimate read?
A: < -0.25

Q: RTQSLTRGGVVMRV was tested. Which growth estimate did it give?
A: < -0.25

Q: Which growth estimate does the source give for RTRATSPGSKRRCV here?
A: < -0.25

Q: How did the growth estimate turn out when RTRKAYSIHM was run?
A: < -0.25

Q: RTRKIGTEW was tested. Which growth estimate did it give?
A: < -0.25

Q: With RTRLSSIVGAQMWVWSFRTS as the substance, how does the growth estimate read?
A: < -0.25

Q: How did the growth estimate turn out when RTRNPPRNAQRLPNVRRLLG was run?
A: < -0.25

Q: With RTRRESGHLEAQSPRSSHYS as the substance, how does the growth estimate read?
A: < -0.25

Q: Which growth estimate does the source give for RTRSPM here?
A: < -0.25

Q: Which growth estimate does the source give for RTRVTSYMARRQ here?
A: < -0.25

Q: With RTSDLRSLSPRGQFARYSAS as the substance, how does the growth estimate read?
A: < -0.25

Q: Which growth estimate does the source give for RTSFGSRGRTGGR here?
A: < -0.25

Q: For RTSRLRTALRRRGSRLTDSW, which growth estimate is on record?
A: < -0.25

Q: For RTSSDAFRTL, which growth estimate is on record?
A: < -0.25

Q: Which growth estimate does the source give for RTSSTGFASPALDIWARQSS here?
A: < -0.25

Q: Which growth estimate does the source give for RTTYALQWTEPALVRAVGEP here?
A: < -0.25

Q: For RTVATAAR, which growth estimate is on record?
A: < -0.25

Q: RTVFEDRSWSVTGCCF was tested. Which growth estimate did it give?
A: < -0.25

Q: With RTVHTRA as the substance, how does the growth estimate read?
A: < -0.25

Q: RTVLCIVNVYMTC was tested. Which growth estimate did it give?
A: < -0.25

Q: With RTVQERSRASL as the substance, how does the growth estimate read?
A: < -0.25

Q: Which growth estimate does the source give for RTVQRPQSRTNVPSSS here?
A: < -0.25

Q: How did the growth estimate turn out when RTVRTETLWGGEELCGPIPG was run?
A: < -0.25

Q: How did the growth estimate turn out when RTVVYPDNRRLVLCARHVLS was run?
A: -0.243

Q: RTYSKHSPAKRAFRWIASPA was tested. Which growth estimate did it give?
A: < -0.25

Q: RVAITSPKC was tested. Which growth estimate did it give?
A: < -0.25

Q: How did the growth estimate turn out when RVALRCKPSNVHRRDSAAVT was run?
A: < -0.25

Q: With RVASGRREKLLANKRIIGP as the substance, how does the growth estimate read?
A: < -0.25

Q: Which growth estimate does the source give for RVATSHGRILWCWVVIGVTE here?
A: < -0.25

Q: With RVDLDVDKKGLSKNQAQPGP as the substance, how does the growth estimate read?
A: < -0.25

Q: With RVDLSDCWVTHFRGVVRNRM as the substance, how does the growth estimate read?
A: < -0.25

Q: For RVDSSTEARSVYRLSLANTF, which growth estimate is on record?
A: < -0.25

Q: RVEHLDGQRSTACCMSSALA was tested. Which growth estimate did it give?
A: < -0.25

Q: How did the growth estimate turn out when RVESIVSEE was run?
A: < -0.25

Q: RVFKGYGLT was tested. Which growth estimate did it give?
A: < -0.25

Q: For RVFVEHVYNLQGERT, which growth estimate is on record?
A: < -0.25

Q: For RVGFWASGHPGALFAGKGIL, which growth estimate is on record?
A: < -0.25

Q: Which growth estimate does the source give for RVGIEQIKANIE here?
A: < -0.25

Q: How did the growth estimate turn out when RVGISCHTYG was run?
A: < -0.25

Q: For RVH, which growth estimate is on record?
A: < -0.25

Q: RVIAAVRVGLGAPFVNPLSS was tested. Which growth estimate did it give?
A: < -0.25

Q: RVIH was tested. Which growth estimate did it give?
A: -0.168

Q: With RVILTE as the substance, how does the growth estimate read?
A: < -0.25

Q: With RVKAG as the substance, how does the growth estimate read?
A: < -0.25

Q: With RVKLDSYLVPVDYVNVVRQG as the substance, how does the growth estimate read?
A: < -0.25

Q: How did the growth estimate turn out when RVKS was run?
A: < -0.25

Q: For RVLPVKGYRE, which growth estimate is on record?
A: -0.231

Q: RVLRLVGELSTTVAA was tested. Which growth estimate did it give?
A: < -0.25

Q: With RVLVLVCLQAGLMKPKASWT as the substance, how does the growth estimate read?
A: < -0.25

Q: Which growth estimate does the source give for RVN here?
A: < -0.25

Q: For RVNAGQPLHGRGSWPYFTPR, which growth estimate is on record?
A: -0.198

Q: With RVNSIALLHKRVCTTCVYLS as the substance, how does the growth estimate read?
A: < -0.25

Q: How did the growth estimate turn out when RVPANRGPALRRGGVGGSKT was run?
A: < -0.25

Q: For RVPKGHDSLPVRRASVLN, which growth estimate is on record?
A: < -0.25

Q: With RVPQICVARLLRCNIHRSA as the substance, how does the growth estimate read?
A: < -0.25

Q: For RVPRSPGTDTFSSSRTSCQL, which growth estimate is on record?
A: < -0.25

Q: How did the growth estimate turn out when RVPVLEH was run?
A: < -0.25

Q: For RVPYAGEANPQPRKPGRVHV, which growth estimate is on record?
A: < -0.25

Q: RVQT was tested. Which growth estimate did it give?
A: < -0.25

Q: How did the growth estimate turn out when RVQVIILGDPSGATRSDYLC was run?
A: < -0.25

Q: For RVRGSNPSWGTLG, which growth estimate is on record?
A: < -0.25

Q: RVRPLPAQGSSCIAPR was tested. Which growth estimate did it give?
A: < -0.25

Q: How did the growth estimate turn out when RVRPRDHGGIRHLDLRNART was run?
A: < -0.25

Q: RVRRPLASNSWRGEGYALCP was tested. Which growth estimate did it give?
A: < -0.25

Q: For RVRYPLLSLLPGTQ, which growth estimate is on record?
A: < -0.25

Q: RVSDLLGRFAHRESRGHLGI was tested. Which growth estimate did it give?
A: < -0.25

Q: RVSFRIMRVGGGERDADREL was tested. Which growth estimate did it give?
A: < -0.25

Q: RVSGIRCI was tested. Which growth estimate did it give?
A: < -0.25

Q: How did the growth estimate turn out when RVSGLGCLGRDKATRRGLRS was run?
A: < -0.25
